Laboratory results as given in paper PMC8470702, “Improved HDAC Inhibition, Stronger Cytotoxic Effect and Higher Selectivity against Leukemias and Lymphomas of Novel, Tricyclic Vorinostat Analogues” (Pharmaceuticals, 2021).

Key:
MV4-11 cells = assay: Cytotoxicity assay (MTT), 72 h; format: cell-based; conditions: Homo sapiens, MV4-11, 72 h, read-out: IC50 MV4-11
Daudi cells = assay: Cytotoxicity assay (MTT), 72 h; format: cell-based; conditions: Homo sapiens, read-out: IC50 Daudi
A549 cells = assay: Cytotoxicity assay (SRB), 72 h; format: cell-based; conditions: Homo sapiens, A549, 72 h, read-out: IC50 A549
MCF-7 cells = assay: Cytotoxicity assay (SRB), 72 h; format: cell-based; conditions: Homo sapiens, MCF7, 72 h, read-out: IC50 MCF-7
BALB/3T3 cells = assay: Cytotoxicity assay (SRB), 72 h; conditions: Mus musculus, BALB/3T3, 72 h, read-out: IC50 BALB/3T3

Work on `O=C(CCCCCCC(=O)Nc1ccccc1)NO` [Vorinostat] yielded an IC50 (MV4-11 cells) of 636 ± 92 nM, an IC50 (Daudi cells) of 493 ± 93 nM and an IC50 (A549 cells) of 1640 ± 320 nM. It also gave an IC50 (MCF-7 cells) of 685 ± 60 nM and an IC50 (BALB/3T3 cells) of 1420 ± 230 nM.
